Measurements as given in article PMC3904413, “Allosteric modulation of GABAA receptors by extracellular ATP” (Molecular Brain, 2014).

Test system: T1, GABAARs (native, cultured hippocampal neurons)
T1 construct: gene Gabra1; native receptors of undefined subunit composition in cultured embryonic (E18) hippocampal neurons
Assay: whole-cell voltage clamp, potentiation of GABA currents
Assay type: cell-based, Rattus norvegicus
Details: GABA 100 μM by pressure ejection, allosteric potentiator

| SMILES | GABA current, % of control at 2 mM (ADP 2 mM in bath) [%] | GABA current, % of control at 2 mM (AMP-PNP 2 mM in bath) [%] |
| --- | --- | --- |
| Nc1ncnc2c1ncn2[C@@H]1O[C@H](COP(=O)(O)OP(=O)(O)O)[C@@H](O)[C@H]1O [ADP] | 140 ± 14.7 |  |
| Nc1ncnc2c1ncn2[C@@H]1O[C@H](COP(=O)(O)OP(=O)(O)NP(=O)(O)O)[C@@H](O)[C@H]1O [AMP-PNP] |  | 134.2 ± 11.4 |
